Results are given in words; binding and its absence hold for the method and conditions named. Binding seen in cells or lysates may run through a third protein. Some binding calls cover weakened binding; strength is not graded here.

By UniProt entry, the sequences of proteins in these tests, tags left out.
UniProt Q3URK3: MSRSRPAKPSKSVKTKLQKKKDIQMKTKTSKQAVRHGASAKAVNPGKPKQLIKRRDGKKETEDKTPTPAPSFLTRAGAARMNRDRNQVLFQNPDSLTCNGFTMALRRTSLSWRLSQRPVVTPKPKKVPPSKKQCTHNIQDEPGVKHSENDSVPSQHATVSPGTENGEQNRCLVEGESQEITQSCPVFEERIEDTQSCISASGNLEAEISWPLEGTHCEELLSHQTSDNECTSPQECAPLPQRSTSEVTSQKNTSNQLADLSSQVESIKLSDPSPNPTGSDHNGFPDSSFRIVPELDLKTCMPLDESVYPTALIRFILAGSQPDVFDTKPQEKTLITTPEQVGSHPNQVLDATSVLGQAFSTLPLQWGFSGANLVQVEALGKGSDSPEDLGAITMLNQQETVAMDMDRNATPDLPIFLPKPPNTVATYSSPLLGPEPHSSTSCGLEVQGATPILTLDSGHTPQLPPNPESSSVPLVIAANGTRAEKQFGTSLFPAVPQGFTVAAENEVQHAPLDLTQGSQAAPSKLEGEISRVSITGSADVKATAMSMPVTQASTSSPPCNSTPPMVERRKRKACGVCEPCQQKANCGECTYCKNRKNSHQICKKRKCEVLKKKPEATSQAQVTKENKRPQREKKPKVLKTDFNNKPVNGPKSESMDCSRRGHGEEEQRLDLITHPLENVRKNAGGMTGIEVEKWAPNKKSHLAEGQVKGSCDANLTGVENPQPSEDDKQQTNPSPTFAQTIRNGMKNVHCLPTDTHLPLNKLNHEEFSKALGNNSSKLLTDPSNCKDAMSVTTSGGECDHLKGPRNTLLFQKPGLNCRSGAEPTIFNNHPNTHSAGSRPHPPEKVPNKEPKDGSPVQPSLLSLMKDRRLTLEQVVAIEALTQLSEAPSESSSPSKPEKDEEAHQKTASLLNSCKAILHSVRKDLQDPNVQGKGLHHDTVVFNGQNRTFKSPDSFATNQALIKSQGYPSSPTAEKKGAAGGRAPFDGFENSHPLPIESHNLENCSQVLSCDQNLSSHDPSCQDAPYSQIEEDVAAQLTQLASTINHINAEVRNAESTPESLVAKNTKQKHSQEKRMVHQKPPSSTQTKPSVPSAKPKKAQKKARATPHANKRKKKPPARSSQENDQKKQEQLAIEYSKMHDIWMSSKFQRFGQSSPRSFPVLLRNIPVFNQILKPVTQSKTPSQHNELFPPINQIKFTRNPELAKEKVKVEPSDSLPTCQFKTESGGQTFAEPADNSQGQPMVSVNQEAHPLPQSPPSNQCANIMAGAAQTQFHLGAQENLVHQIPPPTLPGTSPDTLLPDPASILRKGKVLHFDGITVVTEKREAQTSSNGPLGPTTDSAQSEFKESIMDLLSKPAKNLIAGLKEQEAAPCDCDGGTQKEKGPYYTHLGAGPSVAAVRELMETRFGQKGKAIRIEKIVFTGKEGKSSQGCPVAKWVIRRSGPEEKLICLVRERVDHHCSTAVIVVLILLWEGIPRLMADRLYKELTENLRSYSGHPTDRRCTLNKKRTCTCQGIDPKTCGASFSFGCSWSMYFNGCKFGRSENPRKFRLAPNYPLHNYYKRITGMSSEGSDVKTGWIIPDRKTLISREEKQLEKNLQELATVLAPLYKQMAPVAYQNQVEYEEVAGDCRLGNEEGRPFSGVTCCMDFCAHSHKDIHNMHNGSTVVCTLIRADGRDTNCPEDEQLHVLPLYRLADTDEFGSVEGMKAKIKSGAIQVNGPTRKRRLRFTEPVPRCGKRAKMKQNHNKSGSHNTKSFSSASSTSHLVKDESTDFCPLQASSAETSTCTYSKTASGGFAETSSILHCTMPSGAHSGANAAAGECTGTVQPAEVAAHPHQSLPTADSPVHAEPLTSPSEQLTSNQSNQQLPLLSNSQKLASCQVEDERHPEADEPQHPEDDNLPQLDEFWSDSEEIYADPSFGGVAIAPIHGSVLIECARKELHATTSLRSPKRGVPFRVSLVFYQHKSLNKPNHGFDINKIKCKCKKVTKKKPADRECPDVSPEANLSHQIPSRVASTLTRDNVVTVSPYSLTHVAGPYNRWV

Test [1] has as its target Tet1 (mouse (endogenous in E14 ES cells)) (UniProt Q3URK3). In words: co-IP; endogenous proteins from ESC nuclear extracts (micrococcal nuclease digested); 3 ug anti-Tet1, anti-Suz12 or control IgG overnight at 4°C, Protein G magnetic beads; washed with digestion buffer with 0.1% NP-40; eluted with 0.4 M NaCl TE; western blot. (Immunoblotting shows a protein as a band on a membrane.)

Test [2] deals with Tet1 (mouse (endogenous in MEFs)) (UniProt Q3URK3). Put plainly: co-IP; endogenous proteins from MEF nuclear extracts (micrococcal nuclease digested); 3 ug anti-Tet1, anti-Suz12 or control IgG overnight at 4°C, Protein G magnetic beads; washed with digestion buffer with 0.1% NP-40; eluted with 0.4 M NaCl TE; western blot.

B1: Sin3a (protein, UniProt Q60520 1-1274)
chain: MKRRLDDQESPVYAAQQRRIPGSTEAFSHQHRVLAPAPPVYEAVSETMQSATGIQYSVAPNYQVSAVPQSSGSHGPAIAAVHSSHHHPTAVQPHGGQVVQSHAHPAPPVAPVQGQQQFQRLKVEDALSYLDQVKLQFGSQPQVYNDFLDIMKEFKSQSIDTPGVISRVSQLFKGHPDLIMGFNTFLPPGYKIEVQTNDMVNVTTPGQVHQIPTHGIQPQPQPPPQHPSQPSSQSAPTPAQPAPQPTAAKVSKPSQLQAHTPASQQTPPLPPYASPRSPPVQPHTPVTISLGTAPSLQNNQPVEFNHAINYVNKIKNRFQGQPDIYKAFLEILHTYQKEQRNAKEAGGNYTPALTEQEVYAQVARLFKNQEDLLSEFGQFLPDANSSVLLSKTTAEKVDSVRNDHGGTVKKPQLNNKPQRPSQNGCQIRRHSGTGATPPVKKKPKLMSLKESSMADASKHGVGTESLFFDKVRKALRSAEAYENFLRCLVIFNQEVISRAELVQLVSPFLGKFPELFNWFKNFLGYKESVHLESFPKERATEGIAMEIDYASCKRLGSSYRALPKSYQQPKCTGRTPLCKEVLNDTWVSFPSWSEDSTFVSSKKTQYEEHIYRCEDERFELDVVLETNLATIRVLEAIQKKLSRLSAEEQAKFRLDNTLGGTSEVIHRKALQRIYADKAADIIDGLRKNPSIAVPIVLKRLKMKEEEWREAQRGFNKVWREQNEKYYLKSLDHQGINFKQNDTKVLRSKSLLNEIESIYDERQEQATEENAGVPVGPHLSLAYEDKQILEDAAALIIHHVKRQTGIQKEDKYKIKQIMHHFIPDLLFAQRGDLSDVEEEEEEEMDVDEATGAPKKHNGVGGSPPKSKLLFSNTAAQKLRGMDEVYNLFYVNNNWYIFMRLHQILCLRLLRICSQAERQIEEENREREWEREVLGIKRDKSDSPAIQLRLKEPMDVDVEDYYPAFLDMVRSLLDGNIDSSQYEDSLREMFTIHAYIAFTMDKLIQSIVRQLQHIVSDEVCVQVTDLYLAENNNGATGGQLNSQTSRSLLESAYQRKAEQLMSDENCFKLMFIQSQGQVQLTVELLDTEEENSDDPVEAERWSDYVERYMSSDTTSPELREHLAQKPVFLPRNLRRIRKCQRGREQQEKEGKEGNSKKTMENVESLDKLECRFKLNSYKMVYVIKSEDYMYRRTALLRAHQSHERVSKRLHQRFQAWVDKWTKEHVPREMAAETSKWLMGEGLEGLVPCTTTCDTETLHFVSINKYRVKYGTVFKAP
For B1, the binding entry in test [1] and in test [2] was “binds” throughout.

The values above are taken from publication PMC4053938.
